These are yes or no findings as the source states them, for the method shown. In cells and extracts the contact can be indirect. Here binding means that the protein was enriched with, or labelled near, the bait; the list need not be complete.
What was measured:
Assay in all cases: affinity purification with mass spectrometry
[1] = target: T1, ALFIN-LIKE 2 (AL2) (Arabidopsis thaliana) (UniProt Q9SRM4)
T1 sequence: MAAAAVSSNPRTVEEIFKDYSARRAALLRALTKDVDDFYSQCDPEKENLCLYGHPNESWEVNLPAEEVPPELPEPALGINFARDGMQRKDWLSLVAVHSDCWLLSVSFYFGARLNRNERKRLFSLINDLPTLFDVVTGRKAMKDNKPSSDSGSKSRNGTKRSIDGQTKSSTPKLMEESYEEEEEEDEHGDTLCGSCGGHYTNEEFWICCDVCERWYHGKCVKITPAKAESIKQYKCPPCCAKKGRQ

[2] = target: T2, ALFIN-LIKE 1 (AL1) (Arabidopsis thaliana) (UniProt Q9FFF5)
T2 sequence: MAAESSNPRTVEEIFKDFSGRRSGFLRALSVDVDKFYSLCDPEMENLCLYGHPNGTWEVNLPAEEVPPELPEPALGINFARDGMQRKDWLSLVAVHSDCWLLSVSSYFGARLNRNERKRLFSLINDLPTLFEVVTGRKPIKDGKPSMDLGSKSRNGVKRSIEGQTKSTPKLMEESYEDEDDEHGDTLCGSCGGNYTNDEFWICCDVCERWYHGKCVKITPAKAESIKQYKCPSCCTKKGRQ

[3] = target: T3, ALFIN-LIKE 4 (AL4) (Arabidopsis thaliana) (UniProt O81488)
T3 sequence: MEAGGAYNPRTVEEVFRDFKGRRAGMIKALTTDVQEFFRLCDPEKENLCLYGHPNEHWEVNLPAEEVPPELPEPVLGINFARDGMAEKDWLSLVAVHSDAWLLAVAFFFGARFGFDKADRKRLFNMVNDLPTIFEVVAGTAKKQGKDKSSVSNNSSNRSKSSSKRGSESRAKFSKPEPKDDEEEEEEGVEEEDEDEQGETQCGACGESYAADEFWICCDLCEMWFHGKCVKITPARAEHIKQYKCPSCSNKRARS

[4] = target: T4, ALFIN-LIKE 7 (AL7) (Arabidopsis thaliana) (UniProt Q8LA16)
T4 sequence: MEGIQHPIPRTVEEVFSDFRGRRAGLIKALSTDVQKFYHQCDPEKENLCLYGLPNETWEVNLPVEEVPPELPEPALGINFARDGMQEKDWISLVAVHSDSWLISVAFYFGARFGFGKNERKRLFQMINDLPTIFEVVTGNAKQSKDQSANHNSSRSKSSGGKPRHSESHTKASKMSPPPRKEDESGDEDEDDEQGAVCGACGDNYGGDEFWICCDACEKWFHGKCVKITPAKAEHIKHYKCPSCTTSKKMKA

[5] = target: T5, ALFIN-LIKE 5 (AL5) (Arabidopsis thaliana) (UniProt Q5XEM9)
T5 sequence: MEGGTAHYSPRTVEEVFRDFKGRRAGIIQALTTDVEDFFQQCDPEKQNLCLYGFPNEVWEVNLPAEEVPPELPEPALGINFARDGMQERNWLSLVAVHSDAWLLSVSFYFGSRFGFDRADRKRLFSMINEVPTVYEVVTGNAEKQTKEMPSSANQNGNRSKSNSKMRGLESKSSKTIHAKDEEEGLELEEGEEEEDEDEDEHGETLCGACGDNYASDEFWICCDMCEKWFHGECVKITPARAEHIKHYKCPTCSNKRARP

[6] = target: T6, ALFIN-LIKE 3 (AL3) (Arabidopsis thaliana) (UniProt Q9M2B4)
T6 sequence: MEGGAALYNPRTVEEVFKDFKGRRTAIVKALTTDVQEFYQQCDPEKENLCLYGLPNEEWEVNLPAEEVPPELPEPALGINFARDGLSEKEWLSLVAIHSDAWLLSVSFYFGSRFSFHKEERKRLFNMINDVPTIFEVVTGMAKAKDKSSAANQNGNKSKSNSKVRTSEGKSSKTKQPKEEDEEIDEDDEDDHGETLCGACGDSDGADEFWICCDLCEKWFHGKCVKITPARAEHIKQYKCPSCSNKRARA

[7] = target: T7, ALFIN-LIKE 6 (AL6) (Arabidopsis thaliana) (UniProt Q8S8M9)
T7 sequence: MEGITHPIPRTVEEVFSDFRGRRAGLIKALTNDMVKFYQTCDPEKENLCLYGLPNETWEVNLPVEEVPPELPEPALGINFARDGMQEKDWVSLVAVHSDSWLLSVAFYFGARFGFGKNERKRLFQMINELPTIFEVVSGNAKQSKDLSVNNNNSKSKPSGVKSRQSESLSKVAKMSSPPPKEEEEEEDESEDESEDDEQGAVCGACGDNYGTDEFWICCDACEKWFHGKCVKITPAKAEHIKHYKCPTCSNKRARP

Measured: binding

B1: ALFIN-LIKE 6 (AL6) (protein, UniProt Q8S8M9 1-256)
chain: MEGITHPIPRTVEEVFSDFRGRRAGLIKALTNDMVKFYQTCDPEKENLCLYGLPNETWEVNLPVEEVPPELPEPALGINFARDGMQEKDWVSLVAVHSDSWLLSVAFYFGARFGFGKNERKRLFQMINELPTIFEVVSGNAKQSKDLSVNNNNSKSKPSGVKSRQSESLSKVAKMSSPPPKEEEEEEDESEDESEDDEQGAVCGACGDNYGTDEFWICCDACEKWFHGKCVKITPAKAEHIKHYKCPTCSNKRARP
binds: [1] | [2] | [3] | [4] | [5] | [6]

B2: ALFIN-LIKE 1 (AL1) (protein, UniProt Q9FFF5 1-241)
chain: MAAESSNPRTVEEIFKDFSGRRSGFLRALSVDVDKFYSLCDPEMENLCLYGHPNGTWEVNLPAEEVPPELPEPALGINFARDGMQRKDWLSLVAVHSDCWLLSVSSYFGARLNRNERKRLFSLINDLPTLFEVVTGRKPIKDGKPSMDLGSKSRNGVKRSIEGQTKSTPKLMEESYEDEDDEHGDTLCGSCGGNYTNDEFWICCDVCERWYHGKCVKITPAKAESIKQYKCPSCCTKKGRQ
binds: [1] | [3] | [4] | [5] | [6] | [7]

B3: ALFIN-LIKE 3 (AL3) (protein, UniProt Q9M2B4 1-250)
chain: MEGGAALYNPRTVEEVFKDFKGRRTAIVKALTTDVQEFYQQCDPEKENLCLYGLPNEEWEVNLPAEEVPPELPEPALGINFARDGLSEKEWLSLVAIHSDAWLLSVSFYFGSRFSFHKEERKRLFNMINDVPTIFEVVTGMAKAKDKSSAANQNGNKSKSNSKVRTSEGKSSKTKQPKEEDEEIDEDDEDDHGETLCGACGDSDGADEFWICCDLCEKWFHGKCVKITPARAEHIKQYKCPSCSNKRARA
binds: [1] | [2] | [3] | [4] | [5] | [7]

B4: ALFIN-LIKE 7 (AL7) (protein, UniProt Q8LA16 1-252)
chain: MEGIQHPIPRTVEEVFSDFRGRRAGLIKALSTDVQKFYHQCDPEKENLCLYGLPNETWEVNLPVEEVPPELPEPALGINFARDGMQEKDWISLVAVHSDSWLISVAFYFGARFGFGKNERKRLFQMINDLPTIFEVVTGNAKQSKDQSANHNSSRSKSSGGKPRHSESHTKASKMSPPPRKEDESGDEDEDDEQGAVCGACGDNYGGDEFWICCDACEKWFHGKCVKITPAKAEHIKHYKCPSCTTSKKMKA
binds: [1] | [2] | [3] | [5] | [6] | [7]

B5: AL2 (recombinant, pull-down) (natural protein, Arabidopsis thaliana, UniProt Q9SRM4 1-246, looked up)
chain: MAAAAVSSNPRTVEEIFKDYSARRAALLRALTKDVDDFYSQCDPEKENLCLYGHPNESWEVNLPAEEVPPELPEPALGINFARDGMQRKDWLSLVAVHSDCWLLSVSFYFGARLNRNERKRLFSLINDLPTLFDVVTGRKAMKDNKPSSDSGSKSRNGTKRSIDGQTKSSTPKLMEESYEEEEEEDEHGDTLCGSCGGHYTNEEFWICCDVCERWYHGKCVKITPAKAESIKQYKCPPCCAKKGRQ
binds: [2] | [3] | [4] | [5] | [6] | [7]

B6: ALFIN-LIKE 5 (AL5) (protein, UniProt Q5XEM9 1-260)
chain: MEGGTAHYSPRTVEEVFRDFKGRRAGIIQALTTDVEDFFQQCDPEKQNLCLYGFPNEVWEVNLPAEEVPPELPEPALGINFARDGMQERNWLSLVAVHSDAWLLSVSFYFGSRFGFDRADRKRLFSMINEVPTVYEVVTGNAEKQTKEMPSSANQNGNRSKSNSKMRGLESKSSKTIHAKDEEEGLELEEGEEEEDEDEDEHGETLCGACGDNYASDEFWICCDMCEKWFHGECVKITPARAEHIKHYKCPTCSNKRARP
binds: [1] | [2] | [3] | [4] | [6] | [7]

B7: ALFIN-LIKE 4 (AL4) (protein, UniProt O81488 1-255)
chain: MEAGGAYNPRTVEEVFRDFKGRRAGMIKALTTDVQEFFRLCDPEKENLCLYGHPNEHWEVNLPAEEVPPELPEPVLGINFARDGMAEKDWLSLVAVHSDAWLLAVAFFFGARFGFDKADRKRLFNMVNDLPTIFEVVAGTAKKQGKDKSSVSNNSSNRSKSSSKRGSESRAKFSKPEPKDDEEEEEEGVEEEDEDEQGETQCGACGESYAADEFWICCDLCEMWFHGKCVKITPARAEHIKQYKCPSCSNKRARS
binds: [1] | [2] | [4] | [5] | [6] | [7]
